From patent publication US20020037582A1
These are yes or no findings as the source states them, for the method shown. For some of these results: In cells and extracts the contact can be indirect. Some binding calls cover weakened binding; strength is not graded here. For some of these results: Where a sequence is shown, tags or fusion partners need not be part of it. Values belong to the binder of their own block, whether it stands above or below them.

By UniProt entry, the sequences of proteins in these tests, tags left out. Where a name states a change or a piece, a line headed by the entry shows the natural chain unless it says otherwise.
UniProt Q14449: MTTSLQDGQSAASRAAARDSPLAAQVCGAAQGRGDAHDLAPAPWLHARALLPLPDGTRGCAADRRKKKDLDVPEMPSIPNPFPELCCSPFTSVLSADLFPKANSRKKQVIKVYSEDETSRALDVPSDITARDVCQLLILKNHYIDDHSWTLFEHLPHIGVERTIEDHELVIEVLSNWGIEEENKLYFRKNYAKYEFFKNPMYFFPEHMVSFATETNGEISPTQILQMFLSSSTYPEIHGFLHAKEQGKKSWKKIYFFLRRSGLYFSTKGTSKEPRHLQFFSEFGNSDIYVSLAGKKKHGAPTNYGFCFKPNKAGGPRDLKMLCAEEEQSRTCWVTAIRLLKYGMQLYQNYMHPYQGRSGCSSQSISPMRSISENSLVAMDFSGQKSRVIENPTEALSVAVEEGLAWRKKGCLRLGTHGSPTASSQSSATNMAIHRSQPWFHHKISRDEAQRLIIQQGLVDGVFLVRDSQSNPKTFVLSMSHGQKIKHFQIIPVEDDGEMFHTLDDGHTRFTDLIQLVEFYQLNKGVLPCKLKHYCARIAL
UniProt P04386: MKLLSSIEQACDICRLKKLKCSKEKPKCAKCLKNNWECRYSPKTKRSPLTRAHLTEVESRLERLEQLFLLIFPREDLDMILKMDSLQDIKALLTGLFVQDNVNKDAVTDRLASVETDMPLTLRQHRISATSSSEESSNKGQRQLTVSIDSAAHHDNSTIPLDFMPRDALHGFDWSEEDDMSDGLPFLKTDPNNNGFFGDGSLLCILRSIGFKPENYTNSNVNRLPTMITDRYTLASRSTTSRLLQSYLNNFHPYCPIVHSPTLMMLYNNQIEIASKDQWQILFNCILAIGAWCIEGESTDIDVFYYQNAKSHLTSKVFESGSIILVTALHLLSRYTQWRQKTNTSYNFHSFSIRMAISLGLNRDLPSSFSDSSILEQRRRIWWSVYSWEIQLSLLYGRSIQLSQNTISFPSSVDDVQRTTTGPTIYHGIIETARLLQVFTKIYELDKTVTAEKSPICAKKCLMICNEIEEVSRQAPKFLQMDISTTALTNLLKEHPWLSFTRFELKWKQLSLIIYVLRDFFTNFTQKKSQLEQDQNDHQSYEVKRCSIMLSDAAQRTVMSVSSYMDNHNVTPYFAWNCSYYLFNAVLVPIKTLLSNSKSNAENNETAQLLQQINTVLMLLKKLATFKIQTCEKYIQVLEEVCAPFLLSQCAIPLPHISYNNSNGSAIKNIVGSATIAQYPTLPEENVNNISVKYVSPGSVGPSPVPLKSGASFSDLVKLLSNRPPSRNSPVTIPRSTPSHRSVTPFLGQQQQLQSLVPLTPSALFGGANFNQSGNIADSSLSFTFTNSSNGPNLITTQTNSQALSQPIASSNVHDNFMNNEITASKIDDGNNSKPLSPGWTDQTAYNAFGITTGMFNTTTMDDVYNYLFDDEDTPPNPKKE

What was measured:
[1] = molecular target: Grb7 (from human breast cancer cells SK-BR-3) (human) (UniProt Q14451); assay: GST pull-down from SK-BR-3 lysate, Western blot
[2] = molecular target: Flag epitope-tagged Grb14 (UniProt Q14449); assay: GST pull-down from lysate of cells expressing Flag-tagged Grb14, Western blot
[3] = molecular target: Gal4 DNA-BD-Grb14 fusion (full length Grb14, GRB14/pAS2.1) (S. cerevisiae) (UniProt P04386+Q14449); assay: yeast two hybrid screen with Grb14 bait

binding [3]: binds
B3: original 2.2412 cDNA clone in pACT-2 (nucleotides 694-2664 of FIG. 1, polypeptide of 657 amino acids) (protein, not shown: large carriers)
chain: ERLAYEFKGHSLLQAAREADVTRIKKHLSLEMVNFKHPQTHETALHCAAASPYPKRKQICELLLRKGANINEKTKEFLTPLHVASEKAHNDVVEVVVKHEAKVNALDNLGQTSLHRAAYCGHLQTCRLLLSYGCDPNIISLQGFTALQMGNENVQQLLQEGISLGNSEADRQLLEAAKAGDVETVKKLCTVQSVNCRDIEGRQSTPLHFAAGYNRVSVVEYLLQHGADVHAKDKGGLVPLHNACSYGHYEVAELLVKHGAVVNVADLWKFTPLHEAAAKGKYEICKLLLQHGADPTKKNRDGNTPLDLVKDGDTDIQDLLRGDAALLDAAKKGCLARVKKLSSPDNVNCRDTQGRHSTPLHLAAGYNNLEVAEYLLQHGADVNAQDKGGLIPLHNAASYGHVDVAALLIKYNASLNATDKWAFTPLHEAAQKGRTQLCALLLAHGADPTLKNQEGQTPLDLVSADDVSALLTAAMPPSALPSCYKPQVLNGVRSPGATADALSSGPSSPSSLSAASSLDNLSGSFSELSSVVSSSGTEGASSLEKKEVPGVDFSITQFVRNLGLEHLMDIFEREQITLDVLVEMGHKELKEIGINAYGHRHKLIKGVERLISGQQGLNPYLTLNTSGSGTILIDLSPDDKEFQSVEEEMQSTVREHR

binding [1]: binds | binding [2]: binds
B4: GST fusion of the full length original 2.2412 cDNA clone (nucleotides 694-2664 of FIG. 1) in pGEX4T2 (protein, not shown: a dimerising Fc or GST)
chain: B3 chain

Further lines, the binder ahead of its results:

B1: GST fusion of the N-terminal region of the original 2.2412 cDNA clone (nucleotides 694-1614 of FIG. 1) in pGEX4T2 (protein, not shown: a dimerising Fc or GST)
chain: ERLAYEFKGHSLLQAAREADVTRIKKHLSLEMVNFKHPQTHETALHCAAASPYPKRKQICELLLRKGANINEKTKEFLTPLHVASEKAHNDVVEVVVKHEAKVNALDNLGQTSLHRAAYCGHLQTCRLLLSYGCDPNIISLQGFTALQMGNENVQQLLQEGISLGNSEADRQLLEAAKAGDVETVKKLCTVQSVNCRDIEGRQSTPLHFAAGYNRVSVVEYLLQHGADVHAKDKGGLVPLHNACSYGHYEVAELLVKHGAVVNVADLWKFTPLHEAAAKGKYEICKLLLQHGADPTKKNRDGNTPLD
binding [1]: binds | binding [2]: binds

B2: GST fusion of the C-terminal region of the original 2.2412 cDNA clone (nucleotides 1615-2664 of FIG. 1) in pGEX4T2 (protein, not shown: a dimerising Fc or GST)
chain: LVKDGDTDIQDLLRGDAALLDAAKKGCLARVKKLSSPDNVNCRDTQGRHSTPLHLAAGYNNLEVAEYLLQHGADVNAQDKGGLIPLHNAASYGHVDVAALLIKYNASLNATDKWAFTPLHEAAQKGRTQLCALLLAHGADPTLKNQEGQTPLDLVSADDVSALLTAAMPPSALPSCYKPQVLNGVRSPGATADALSSGPSSPSSLSAASSLDNLSGSFSELSSVVSSSGTEGASSLEKKEVPGVDFSITQFVRNLGLEHLMDIFEREQITLDVLVEMGHKELKEIGINAYGHRHKLIKGVERLISGQQGLNPYLTLNTSGSGTILIDLSPDDKEFQSVEEEMQSTVREHR
binding [1]: binds | binding [2]: binds
